Data as given in the supplement of paper PMC7646827.
Counter-ions that a name gives are not always drawn. Single values are uncertain, as repeats are few or missing.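 All cells are established human bladder cancer lines, one of them grown from a patient-derived xenograft. Viability was read by a luminescent ATP assay as percent inhibition versus vehicle over a seven-point dilution series; the paper calls scores above 59 very active, 30–59 active, 21–29 semi-active, 9–20 low active and below 9 inactive.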

Legend:
Experiment in all cases: drug sensitivity score DSS3 (score 0-100); higher = more sensitive; extreme values may be limits of the assay
Conditions in all cases: culture: 3D, ultra-low attachment; treatment time: 5 days
UM-UC-17 = test system: UM-UC-17
SW780 = test system: SW780
UM-UC-18 = test system: UM-UC-18
5637 = test system: 5637
UM-UC-1 = test system: UM-UC-1
UM-UC-12 = test system: UM-UC-12
TCCSUP = test system: TCCSUP
UM-UC-3 = test system: UM-UC-3
UM-UC-6 = test system: UM-UC-6
BC8149 = test system: BC8149
J82 = test system: J82
UM-UC-15 = test system: UM-UC-15
SCaBER = test system: SCaBER
UM-UC-5 = test system: UM-UC-5
T-24 = test system: T-24
UM-UC-9 = test system: UM-UC-9
UM-UC-14 = test system: UM-UC-14

SMILES: OCCn1cc(-c2cnc3nnn(Cc4ccc5ncccc5c4)c3n2)cn1 (max dose 10000 nM)
- drug sensitivity score DSS3 (UM-UC-17): 0
- drug sensitivity score DSS3 (SW780): 0
- drug sensitivity score DSS3 (UM-UC-18): 0
- drug sensitivity score DSS3 5637: 0
- drug sensitivity score DSS3 (UM-UC-1): 0
- drug sensitivity score DSS3 (UM-UC-12): 0
- drug sensitivity score DSS3 (TCCSUP): 0
- drug sensitivity score DSS3 (UM-UC-3): 0
- drug sensitivity score DSS3 (UM-UC-6): 0
- drug sensitivity score DSS3 (BC8149): 0.0292
- drug sensitivity score DSS3 (J82): 0
- drug sensitivity score DSS3 (UM-UC-15): 0
- drug sensitivity score DSS3 (SCaBER): 0
- drug sensitivity score DSS3 (UM-UC-5): 0
- drug sensitivity score DSS3 (T-24): 0
- drug sensitivity score DSS3 (UM-UC-9): 0
- drug sensitivity score DSS3 (UM-UC-14): 0

SMILES: CC1(C)C=C(CN2C/C(=C\c3ccc(F)cc3)C(=O)/C(=C/c3ccc(F)cc3)C2)C(C)(C)N1O [HO-3867] (max dose 10000 nM)
- drug sensitivity score DSS3 (UM-UC-17): 0
- drug sensitivity score DSS3 (SW780): 0
- drug sensitivity score DSS3 (UM-UC-18): 0
- drug sensitivity score DSS3 5637: 0
- drug sensitivity score DSS3 (UM-UC-1): 0
- drug sensitivity score DSS3 (UM-UC-12): 0
- drug sensitivity score DSS3 (TCCSUP): 0
- drug sensitivity score DSS3 (UM-UC-3): 0
- drug sensitivity score DSS3 (UM-UC-6): 0.256
- drug sensitivity score DSS3 (BC8149): 0
- drug sensitivity score DSS3 (J82): 0
- drug sensitivity score DSS3 (UM-UC-15): 0
- drug sensitivity score DSS3 (SCaBER): 0
- drug sensitivity score DSS3 (UM-UC-5): 0
- drug sensitivity score DSS3 (T-24): 0.0712
- drug sensitivity score DSS3 (UM-UC-9): 0
- drug sensitivity score DSS3 (UM-UC-14): 0

SMILES: CN(C)CCOc1ccc(/C(=C(/CCCl)c2ccccc2)c2ccccc2)cc1 [Toremifene Citrate] (max dose 10000 nM)
- drug sensitivity score DSS3 (UM-UC-17): 0
- drug sensitivity score DSS3 (SW780): 0
- drug sensitivity score DSS3 (UM-UC-18): 0
- drug sensitivity score DSS3 5637: 0
- drug sensitivity score DSS3 (UM-UC-1): 0
- drug sensitivity score DSS3 (UM-UC-12): 0
- drug sensitivity score DSS3 (TCCSUP): 0
- drug sensitivity score DSS3 (UM-UC-3): 0
- drug sensitivity score DSS3 (UM-UC-6): 0
- drug sensitivity score DSS3 (BC8149): 0.119
- drug sensitivity score DSS3 (J82): 0
- drug sensitivity score DSS3 (UM-UC-15): 0
- drug sensitivity score DSS3 (SCaBER): 0
- drug sensitivity score DSS3 (UM-UC-5): 0
- drug sensitivity score DSS3 (T-24): 0
- drug sensitivity score DSS3 (UM-UC-9): 0
- drug sensitivity score DSS3 (UM-UC-14): 0

SMILES: CNCCN(C)Cc1c[nH]nc1-c1ccc(O[C@H]2C[C@H](OCCC3CCOCC3)C2)cc1 (max dose 10000 nM)
- drug sensitivity score DSS3 (UM-UC-17): 0
- drug sensitivity score DSS3 (SW780): 0
- drug sensitivity score DSS3 (UM-UC-18): 0
- drug sensitivity score DSS3 5637: 0
- drug sensitivity score DSS3 (UM-UC-1): 0
- drug sensitivity score DSS3 (UM-UC-12): 0
- drug sensitivity score DSS3 (TCCSUP): 0
- drug sensitivity score DSS3 (UM-UC-3): 0
- drug sensitivity score DSS3 (UM-UC-6): 0
- drug sensitivity score DSS3 (BC8149): 0
- drug sensitivity score DSS3 (J82): 0
- drug sensitivity score DSS3 (UM-UC-15): 0
- drug sensitivity score DSS3 (SCaBER): 0
- drug sensitivity score DSS3 (UM-UC-5): 0
- drug sensitivity score DSS3 (T-24): 0
- drug sensitivity score DSS3 (UM-UC-9): 0
- drug sensitivity score DSS3 (UM-UC-14): 0

SMILES: CCc1ccc(CCOc2ccc(CC3SC(=O)NC3=O)cc2)nc1 (centres undefined) [Pioglitazone] (max dose 10000 nM)
- drug sensitivity score DSS3 (UM-UC-17): 0
- drug sensitivity score DSS3 (SW780): 0
- drug sensitivity score DSS3 (UM-UC-18): 0
- drug sensitivity score DSS3 5637: 0
- drug sensitivity score DSS3 (UM-UC-1): 0
- drug sensitivity score DSS3 (UM-UC-12): 0
- drug sensitivity score DSS3 (TCCSUP): 0
- drug sensitivity score DSS3 (UM-UC-3): 0
- drug sensitivity score DSS3 (UM-UC-6): 0
- drug sensitivity score DSS3 (BC8149): 0
- drug sensitivity score DSS3 (J82): 0
- drug sensitivity score DSS3 (UM-UC-15): 0
- drug sensitivity score DSS3 (SCaBER): 0
- drug sensitivity score DSS3 (UM-UC-5): 0
- drug sensitivity score DSS3 (T-24): 0
- drug sensitivity score DSS3 (UM-UC-9): 0
- drug sensitivity score DSS3 (UM-UC-14): 0

SMILES: CC(C)NC[C@@H](C(=O)N1CCN(c2ncnc3c2[C@H](C)C[C@H]3O)CC1)c1ccc(Cl)cc1 [Ipatasertib (GDC-0068)] (max dose 10000 nM)
- drug sensitivity score DSS3 (UM-UC-17): 0
- drug sensitivity score DSS3 (SW780): 0
- drug sensitivity score DSS3 (UM-UC-18): 8.42
- drug sensitivity score DSS3 5637: 1.42
- drug sensitivity score DSS3 (UM-UC-1): 7.68
- drug sensitivity score DSS3 (UM-UC-12): 0.805
- drug sensitivity score DSS3 (TCCSUP): 6.12
- drug sensitivity score DSS3 (UM-UC-3): 1.32
- drug sensitivity score DSS3 (UM-UC-6): 11.7
- drug sensitivity score DSS3 (BC8149): 0
- drug sensitivity score DSS3 (J82): 0
- drug sensitivity score DSS3 (UM-UC-15): 2.95
- drug sensitivity score DSS3 (SCaBER): 11.1
- drug sensitivity score DSS3 (UM-UC-5): 10.2
- drug sensitivity score DSS3 (T-24): 0
- drug sensitivity score DSS3 (UM-UC-9): 8.46
- drug sensitivity score DSS3 (UM-UC-14): 9.27

SMILES: Cc1ccc(NC(=O)c2ccnc(C(F)(F)F)c2)cc1-c1cc(OCCO)nc(N2CCOCC2)c1 [LXH254] (max dose 10000 nM)
- drug sensitivity score DSS3 (UM-UC-17): 0.0714
- drug sensitivity score DSS3 (SW780): 0
- drug sensitivity score DSS3 (UM-UC-18): 0.105
- drug sensitivity score DSS3 5637: 2.39
- drug sensitivity score DSS3 (UM-UC-1): 1.45
- drug sensitivity score DSS3 (UM-UC-12): 0
- drug sensitivity score DSS3 (TCCSUP): 1.16
- drug sensitivity score DSS3 (UM-UC-3): 4.96
- drug sensitivity score DSS3 (UM-UC-6): 0.105
- drug sensitivity score DSS3 (BC8149): 0
- drug sensitivity score DSS3 (J82): 0
- drug sensitivity score DSS3 (UM-UC-15): 3.28
- drug sensitivity score DSS3 (SCaBER): 6.26
- drug sensitivity score DSS3 (UM-UC-5): 10.5
- drug sensitivity score DSS3 (T-24): 0
- drug sensitivity score DSS3 (UM-UC-9): 0.878
- drug sensitivity score DSS3 (UM-UC-14): 1.17

SMILES: COc1ccc(CNC(=O)Nc2ncc([N+](=O)[O-])s2)cc1 (max dose 10000 nM)
- drug sensitivity score DSS3 (UM-UC-17): 0.365
- drug sensitivity score DSS3 (SW780): 0
- drug sensitivity score DSS3 (UM-UC-18): 0.543
- drug sensitivity score DSS3 5637: 0.144
- drug sensitivity score DSS3 (UM-UC-1): 0
- drug sensitivity score DSS3 (UM-UC-12): 0.272
- drug sensitivity score DSS3 (TCCSUP): 0.424
- drug sensitivity score DSS3 (UM-UC-3): 0
- drug sensitivity score DSS3 (UM-UC-6): 0.0504
- drug sensitivity score DSS3 (BC8149): 0.981
- drug sensitivity score DSS3 (J82): 0
- drug sensitivity score DSS3 (UM-UC-15): 16.4
- drug sensitivity score DSS3 (SCaBER): 0
- drug sensitivity score DSS3 (UM-UC-5): 0.00635
- drug sensitivity score DSS3 (T-24): 0
- drug sensitivity score DSS3 (UM-UC-9): 0
- drug sensitivity score DSS3 (UM-UC-14): 0.383

SMILES: O=C(NC1CCNCC1)c1n[nH]cc1NC(=O)c1c(Cl)cccc1Cl [AT7519] (max dose 10000 nM)
- drug sensitivity score DSS3 (UM-UC-17): 8.69
- drug sensitivity score DSS3 (SW780): 7.55
- drug sensitivity score DSS3 (UM-UC-18): 10.7
- drug sensitivity score DSS3 5637: 18.1
- drug sensitivity score DSS3 (UM-UC-1): 12.2
- drug sensitivity score DSS3 (UM-UC-12): 2.06
- drug sensitivity score DSS3 (TCCSUP): 16.5
- drug sensitivity score DSS3 (UM-UC-3): 6.38
- drug sensitivity score DSS3 (UM-UC-6): 12.7
- drug sensitivity score DSS3 (BC8149): 14.6
- drug sensitivity score DSS3 (J82): 0.955
- drug sensitivity score DSS3 (UM-UC-15): 8.24
- drug sensitivity score DSS3 (SCaBER): 11.3
- drug sensitivity score DSS3 (UM-UC-5): 10.2
- drug sensitivity score DSS3 (T-24): 2.2
- drug sensitivity score DSS3 (UM-UC-9): 9.32
- drug sensitivity score DSS3 (UM-UC-14): 6.45

SMILES: CCOCc1nc2c(N)nc3ccccc3c2n1CC(C)(C)O [Resiquimod] (max dose 10000 nM)
- drug sensitivity score DSS3 (UM-UC-17): 0
- drug sensitivity score DSS3 (SW780): 0
- drug sensitivity score DSS3 (UM-UC-18): 0
- drug sensitivity score DSS3 5637: 0
- drug sensitivity score DSS3 (UM-UC-1): 0
- drug sensitivity score DSS3 (UM-UC-12): 0
- drug sensitivity score DSS3 (TCCSUP): 0
- drug sensitivity score DSS3 (UM-UC-3): 0
- drug sensitivity score DSS3 (UM-UC-6): 0
- drug sensitivity score DSS3 (BC8149): 0
- drug sensitivity score DSS3 (J82): 0
- drug sensitivity score DSS3 (UM-UC-15): 0
- drug sensitivity score DSS3 (SCaBER): 0
- drug sensitivity score DSS3 (UM-UC-5): 0
- drug sensitivity score DSS3 (T-24): 0
- drug sensitivity score DSS3 (UM-UC-9): 0
- drug sensitivity score DSS3 (UM-UC-14): 0

SMILES: C/C(=C\C(=O)Nc1ccccc1C(=O)O)c1ccc2ccccc2c1 [BIBR 1532] (max dose 10000 nM)
- drug sensitivity score DSS3 (UM-UC-17): 0
- drug sensitivity score DSS3 (SW780): 0
- drug sensitivity score DSS3 (UM-UC-18): 0
- drug sensitivity score DSS3 5637: 0
- drug sensitivity score DSS3 (UM-UC-1): 0
- drug sensitivity score DSS3 (UM-UC-12): 0
- drug sensitivity score DSS3 (TCCSUP): 0
- drug sensitivity score DSS3 (UM-UC-3): 0
- drug sensitivity score DSS3 (UM-UC-6): 0
- drug sensitivity score DSS3 (BC8149): 0
- drug sensitivity score DSS3 (J82): 0
- drug sensitivity score DSS3 (UM-UC-15): 0
- drug sensitivity score DSS3 (SCaBER): 0
- drug sensitivity score DSS3 (UM-UC-5): 0
- drug sensitivity score DSS3 (T-24): 0
- drug sensitivity score DSS3 (UM-UC-9): 0
- drug sensitivity score DSS3 (UM-UC-14): 0

SMILES: CCN1CCN(Cc2ccc(-c3cc4c(N[C@H](C)c5ccccc5)ncnc4[nH]3)cc2)CC1 [AEE788 (NVP-AEE788)] (max dose 10000 nM)
- drug sensitivity score DSS3 (UM-UC-17): 0.907
- drug sensitivity score DSS3 (SW780): 0
- drug sensitivity score DSS3 (UM-UC-18): 3.71
- drug sensitivity score DSS3 5637: 5.56
- drug sensitivity score DSS3 (UM-UC-1): 0.724
- drug sensitivity score DSS3 (UM-UC-12): 3.41
- drug sensitivity score DSS3 (TCCSUP): 0.984
- drug sensitivity score DSS3 (UM-UC-3): 1.14
- drug sensitivity score DSS3 (UM-UC-6): 1.93
- drug sensitivity score DSS3 (BC8149): 0
- drug sensitivity score DSS3 (J82): 0
- drug sensitivity score DSS3 (UM-UC-15): 0
- drug sensitivity score DSS3 (SCaBER): 1.06
- drug sensitivity score DSS3 (UM-UC-5): 0
- drug sensitivity score DSS3 (T-24): 1.52
- drug sensitivity score DSS3 (UM-UC-9): 1.11
- drug sensitivity score DSS3 (UM-UC-14): 1.14
